Data as given in the supplement of paper PMC10849652.
Some of the results follow.

By UniProt entry, the sequences of proteins in these tests, tags left out. Where a name states a change or a piece, a line headed by the entry shows the natural chain unless it says otherwise.
UniProt P15311, whole entry, looked up: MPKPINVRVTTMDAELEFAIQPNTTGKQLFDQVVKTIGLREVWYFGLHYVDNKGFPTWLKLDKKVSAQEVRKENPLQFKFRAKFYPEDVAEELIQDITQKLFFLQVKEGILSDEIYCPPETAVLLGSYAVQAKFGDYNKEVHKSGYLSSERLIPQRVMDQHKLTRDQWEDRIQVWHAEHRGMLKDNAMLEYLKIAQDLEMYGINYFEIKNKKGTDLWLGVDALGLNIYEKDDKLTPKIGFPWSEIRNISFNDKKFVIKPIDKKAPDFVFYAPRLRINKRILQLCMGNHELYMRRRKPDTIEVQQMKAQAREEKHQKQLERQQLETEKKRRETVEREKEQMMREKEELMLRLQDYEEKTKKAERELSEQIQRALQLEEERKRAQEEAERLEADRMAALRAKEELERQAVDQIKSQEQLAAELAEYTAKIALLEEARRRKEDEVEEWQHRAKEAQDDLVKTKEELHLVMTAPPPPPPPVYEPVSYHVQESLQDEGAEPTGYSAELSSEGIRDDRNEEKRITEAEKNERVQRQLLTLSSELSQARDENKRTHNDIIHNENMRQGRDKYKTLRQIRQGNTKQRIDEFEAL
UniProt P16930: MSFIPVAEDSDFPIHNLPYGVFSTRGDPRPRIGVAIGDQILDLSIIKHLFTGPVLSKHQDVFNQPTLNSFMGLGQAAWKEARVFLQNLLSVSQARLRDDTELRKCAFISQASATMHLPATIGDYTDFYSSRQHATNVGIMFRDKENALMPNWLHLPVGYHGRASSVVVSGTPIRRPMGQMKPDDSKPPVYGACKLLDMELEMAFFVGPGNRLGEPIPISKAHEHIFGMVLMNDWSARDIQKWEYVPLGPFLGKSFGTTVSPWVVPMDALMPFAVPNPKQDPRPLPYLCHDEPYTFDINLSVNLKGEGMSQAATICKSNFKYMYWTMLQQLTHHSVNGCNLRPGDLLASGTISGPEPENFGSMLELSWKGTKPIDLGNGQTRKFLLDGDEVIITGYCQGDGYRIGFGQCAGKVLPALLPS
UniProt Q86UY5: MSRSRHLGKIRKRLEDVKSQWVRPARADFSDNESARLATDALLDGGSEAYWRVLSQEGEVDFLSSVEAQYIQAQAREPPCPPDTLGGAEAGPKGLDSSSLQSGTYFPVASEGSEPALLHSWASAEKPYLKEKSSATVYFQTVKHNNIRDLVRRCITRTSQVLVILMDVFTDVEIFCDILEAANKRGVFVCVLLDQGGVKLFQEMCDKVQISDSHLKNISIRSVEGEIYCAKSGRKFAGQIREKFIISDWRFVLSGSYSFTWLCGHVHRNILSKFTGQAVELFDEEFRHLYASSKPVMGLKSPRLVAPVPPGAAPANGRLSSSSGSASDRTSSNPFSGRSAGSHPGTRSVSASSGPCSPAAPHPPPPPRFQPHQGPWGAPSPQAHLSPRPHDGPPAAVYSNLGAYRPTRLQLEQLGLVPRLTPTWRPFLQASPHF
UniProt P11474: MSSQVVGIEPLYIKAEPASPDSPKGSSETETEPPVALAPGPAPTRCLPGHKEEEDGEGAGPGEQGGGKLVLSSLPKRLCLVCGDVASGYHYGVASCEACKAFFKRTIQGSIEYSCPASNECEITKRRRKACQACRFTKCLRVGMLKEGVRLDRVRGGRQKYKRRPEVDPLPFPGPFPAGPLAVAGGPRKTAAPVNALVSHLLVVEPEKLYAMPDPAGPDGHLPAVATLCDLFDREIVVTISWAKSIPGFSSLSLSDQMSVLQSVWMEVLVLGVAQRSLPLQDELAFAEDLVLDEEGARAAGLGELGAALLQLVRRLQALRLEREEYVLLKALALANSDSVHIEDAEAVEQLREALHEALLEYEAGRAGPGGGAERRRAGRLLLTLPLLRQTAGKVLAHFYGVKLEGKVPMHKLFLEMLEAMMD
UniProt Q9Y3B2, whole entry, looked up: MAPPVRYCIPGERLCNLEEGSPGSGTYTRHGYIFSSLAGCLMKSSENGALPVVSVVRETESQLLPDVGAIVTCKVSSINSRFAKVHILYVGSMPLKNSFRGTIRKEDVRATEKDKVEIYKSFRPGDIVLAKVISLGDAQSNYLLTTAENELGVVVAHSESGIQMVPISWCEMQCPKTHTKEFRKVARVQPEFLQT
UniProt O95571: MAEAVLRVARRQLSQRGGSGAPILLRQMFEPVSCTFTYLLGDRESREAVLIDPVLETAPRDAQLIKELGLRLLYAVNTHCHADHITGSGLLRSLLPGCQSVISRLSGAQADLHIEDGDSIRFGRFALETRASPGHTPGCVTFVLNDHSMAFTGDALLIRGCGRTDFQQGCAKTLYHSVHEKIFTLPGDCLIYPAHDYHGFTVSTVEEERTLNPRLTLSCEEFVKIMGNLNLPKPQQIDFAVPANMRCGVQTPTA
UniProt Q9NZB2: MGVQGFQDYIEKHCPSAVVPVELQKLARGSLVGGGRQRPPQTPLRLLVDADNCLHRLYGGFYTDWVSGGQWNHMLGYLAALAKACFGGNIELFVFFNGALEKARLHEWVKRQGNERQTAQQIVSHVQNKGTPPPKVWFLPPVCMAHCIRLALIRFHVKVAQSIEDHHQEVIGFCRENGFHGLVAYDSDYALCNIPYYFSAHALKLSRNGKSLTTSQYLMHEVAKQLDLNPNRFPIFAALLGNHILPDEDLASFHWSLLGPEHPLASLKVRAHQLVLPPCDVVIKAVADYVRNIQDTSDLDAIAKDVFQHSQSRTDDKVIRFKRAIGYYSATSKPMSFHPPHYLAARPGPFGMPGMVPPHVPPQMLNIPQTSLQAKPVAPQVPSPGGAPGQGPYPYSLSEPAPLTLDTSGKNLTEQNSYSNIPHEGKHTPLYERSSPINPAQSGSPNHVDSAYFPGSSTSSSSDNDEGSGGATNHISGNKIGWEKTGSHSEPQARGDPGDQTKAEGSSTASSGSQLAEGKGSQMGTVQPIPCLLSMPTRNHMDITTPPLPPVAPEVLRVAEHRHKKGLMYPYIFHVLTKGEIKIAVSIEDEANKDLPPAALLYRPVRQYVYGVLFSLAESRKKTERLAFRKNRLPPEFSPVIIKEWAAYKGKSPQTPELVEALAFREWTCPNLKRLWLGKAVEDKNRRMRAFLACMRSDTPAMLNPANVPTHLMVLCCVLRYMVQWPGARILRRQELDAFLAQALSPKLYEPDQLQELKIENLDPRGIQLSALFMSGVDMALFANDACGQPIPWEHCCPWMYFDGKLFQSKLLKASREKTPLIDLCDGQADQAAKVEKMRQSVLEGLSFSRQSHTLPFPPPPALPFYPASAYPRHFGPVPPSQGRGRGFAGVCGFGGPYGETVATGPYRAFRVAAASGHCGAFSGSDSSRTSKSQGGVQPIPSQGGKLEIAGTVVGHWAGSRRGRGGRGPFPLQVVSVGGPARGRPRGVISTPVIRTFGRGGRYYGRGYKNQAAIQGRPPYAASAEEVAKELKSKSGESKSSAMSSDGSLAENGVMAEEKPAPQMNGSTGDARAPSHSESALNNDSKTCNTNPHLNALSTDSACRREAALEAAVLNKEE
UniProt Q0VG06: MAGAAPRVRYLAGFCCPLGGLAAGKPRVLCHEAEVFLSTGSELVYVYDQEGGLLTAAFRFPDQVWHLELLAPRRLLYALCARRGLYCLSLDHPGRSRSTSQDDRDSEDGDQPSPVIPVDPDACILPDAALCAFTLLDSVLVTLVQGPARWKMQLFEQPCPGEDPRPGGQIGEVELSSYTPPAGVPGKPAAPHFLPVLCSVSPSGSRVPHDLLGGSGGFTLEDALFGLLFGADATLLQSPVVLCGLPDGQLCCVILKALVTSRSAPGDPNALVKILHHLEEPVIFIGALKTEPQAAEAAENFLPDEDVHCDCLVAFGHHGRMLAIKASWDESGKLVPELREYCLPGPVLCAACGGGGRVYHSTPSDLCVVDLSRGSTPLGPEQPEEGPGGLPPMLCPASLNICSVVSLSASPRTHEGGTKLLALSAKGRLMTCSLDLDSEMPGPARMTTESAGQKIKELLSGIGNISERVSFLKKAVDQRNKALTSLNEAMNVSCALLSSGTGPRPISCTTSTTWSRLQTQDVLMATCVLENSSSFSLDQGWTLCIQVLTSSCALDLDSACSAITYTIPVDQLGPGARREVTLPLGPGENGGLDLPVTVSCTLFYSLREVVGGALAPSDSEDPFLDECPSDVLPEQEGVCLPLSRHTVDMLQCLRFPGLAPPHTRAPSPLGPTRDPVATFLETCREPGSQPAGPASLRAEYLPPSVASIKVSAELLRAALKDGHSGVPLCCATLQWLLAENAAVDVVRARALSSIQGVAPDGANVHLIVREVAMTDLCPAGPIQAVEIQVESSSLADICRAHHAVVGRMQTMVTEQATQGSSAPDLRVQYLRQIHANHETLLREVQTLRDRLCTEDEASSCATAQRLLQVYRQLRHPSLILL
UniProt Q9NVQ4: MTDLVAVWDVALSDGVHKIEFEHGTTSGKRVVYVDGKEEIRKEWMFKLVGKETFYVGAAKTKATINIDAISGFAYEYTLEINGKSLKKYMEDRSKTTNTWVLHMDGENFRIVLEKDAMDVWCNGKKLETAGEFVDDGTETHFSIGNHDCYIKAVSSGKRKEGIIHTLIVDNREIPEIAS
UniProt Q14153: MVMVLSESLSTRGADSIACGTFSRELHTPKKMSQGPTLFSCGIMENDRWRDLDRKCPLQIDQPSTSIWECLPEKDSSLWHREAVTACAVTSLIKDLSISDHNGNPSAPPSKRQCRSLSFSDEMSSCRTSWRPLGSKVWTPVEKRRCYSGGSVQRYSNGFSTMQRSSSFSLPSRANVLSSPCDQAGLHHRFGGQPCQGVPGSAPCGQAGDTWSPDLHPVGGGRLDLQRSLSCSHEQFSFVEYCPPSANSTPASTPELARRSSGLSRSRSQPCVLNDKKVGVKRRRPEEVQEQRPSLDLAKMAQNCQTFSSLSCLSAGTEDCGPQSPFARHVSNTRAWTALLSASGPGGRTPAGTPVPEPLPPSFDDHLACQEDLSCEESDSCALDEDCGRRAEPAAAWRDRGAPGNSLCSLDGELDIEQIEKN
UniProt Q7Z2K6: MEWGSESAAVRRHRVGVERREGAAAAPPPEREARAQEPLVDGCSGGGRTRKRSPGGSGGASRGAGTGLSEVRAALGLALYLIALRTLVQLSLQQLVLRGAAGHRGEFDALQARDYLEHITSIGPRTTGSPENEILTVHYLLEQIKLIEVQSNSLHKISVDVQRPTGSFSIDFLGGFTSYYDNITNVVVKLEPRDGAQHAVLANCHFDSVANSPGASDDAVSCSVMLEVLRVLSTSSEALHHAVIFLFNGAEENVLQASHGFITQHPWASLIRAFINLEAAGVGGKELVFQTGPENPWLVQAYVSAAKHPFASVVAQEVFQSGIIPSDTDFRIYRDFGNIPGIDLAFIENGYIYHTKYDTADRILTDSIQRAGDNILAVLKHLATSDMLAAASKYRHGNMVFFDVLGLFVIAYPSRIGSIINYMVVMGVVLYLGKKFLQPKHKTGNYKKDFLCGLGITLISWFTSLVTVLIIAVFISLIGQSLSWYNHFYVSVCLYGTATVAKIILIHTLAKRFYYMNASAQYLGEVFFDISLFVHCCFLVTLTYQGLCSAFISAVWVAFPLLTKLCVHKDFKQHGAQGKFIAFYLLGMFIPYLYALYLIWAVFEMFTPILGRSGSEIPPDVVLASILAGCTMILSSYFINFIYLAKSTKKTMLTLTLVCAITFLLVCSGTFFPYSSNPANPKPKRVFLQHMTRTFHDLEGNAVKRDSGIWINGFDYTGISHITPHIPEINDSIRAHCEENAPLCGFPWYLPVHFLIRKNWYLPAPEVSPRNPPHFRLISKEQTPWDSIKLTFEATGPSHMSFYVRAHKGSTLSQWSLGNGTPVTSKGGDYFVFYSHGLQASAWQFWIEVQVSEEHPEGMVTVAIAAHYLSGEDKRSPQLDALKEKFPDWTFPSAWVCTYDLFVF
UniProt Q8N0U4: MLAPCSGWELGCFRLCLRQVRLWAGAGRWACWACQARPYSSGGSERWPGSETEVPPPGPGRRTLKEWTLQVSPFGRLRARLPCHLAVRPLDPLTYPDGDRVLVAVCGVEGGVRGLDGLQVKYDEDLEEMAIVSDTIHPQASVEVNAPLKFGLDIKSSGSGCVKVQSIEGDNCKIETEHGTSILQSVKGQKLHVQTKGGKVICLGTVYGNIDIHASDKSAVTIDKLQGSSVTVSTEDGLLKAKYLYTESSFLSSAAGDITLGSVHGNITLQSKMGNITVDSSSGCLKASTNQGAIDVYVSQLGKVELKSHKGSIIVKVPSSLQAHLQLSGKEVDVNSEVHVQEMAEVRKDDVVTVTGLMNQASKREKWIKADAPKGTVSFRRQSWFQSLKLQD
UniProt Q5T8I3: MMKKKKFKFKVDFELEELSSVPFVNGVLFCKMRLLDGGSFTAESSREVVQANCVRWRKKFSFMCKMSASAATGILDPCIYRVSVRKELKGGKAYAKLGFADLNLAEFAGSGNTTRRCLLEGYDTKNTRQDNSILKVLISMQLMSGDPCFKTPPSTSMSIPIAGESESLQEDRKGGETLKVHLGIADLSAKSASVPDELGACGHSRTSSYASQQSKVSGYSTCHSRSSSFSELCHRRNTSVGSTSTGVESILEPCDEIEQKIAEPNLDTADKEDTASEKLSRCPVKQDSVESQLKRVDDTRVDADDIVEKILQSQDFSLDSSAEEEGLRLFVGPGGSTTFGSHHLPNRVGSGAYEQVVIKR

Experiments:
Assay in all cases: log2 fold change, soluble protein after heating vs DMSO (PISA); higher = thermal stabilisation; K562 lysate, 10 uM; active = over 0.2 and 3.5 SD of the protein, either way, in both replicates (recomputed)
[1] = compound: C1=CC=C(C=C1)[C@H](COC2=CC3=C(C=C2)NC(=O)N3)NC(=O)C4=CC=CN(C4=O)CC5=CC(=C(C=C5)F)F
Outline: (§1)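 Soluble protein was defined as the supernatant remaining after 21,000xg for 90 min, following pooling of heated aliquots and adjustment to 0.5% NP-40 at 4°C. Before that, crude K562 extract at 1 mg/mL protein in PBS pH 7.4 with 1 mM MgCl2 was treated with 10 μM compound for 30 min and heated for 3 min across 48°C-58°C. Quantification used TMTpro 16plex LC-MS/MS with channel sums equalised, and values are log-two fold changes in thermal stability relative to solvent controls from duplicates.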

[2] = compound: CC1=C(SC2=C1C(=N[C@H](C3=NN=C(N32)C)CC(=O)N)C4=CC=C(C=C4)Cl)C
Outline: as §1

[3] = compound: CC1=C2C(=CC=C1)N=C(N(C2=O)C3=CC=CC=C3C)CN4C=NC5=C(N=CN=C54)N
Outline: as §1

[4] = compound: Cc1sc2c(c1C)C(c1ccc(Cl)cc1)=N[C@@H](CC(=O)OC(C)(C)C)c1nnc(C)n1-2
Outline: as §1

[5] = compound: c1ccc([C@@H]2C[C@H]2NC2CCNCC2)cc1
Outline: as §1

Measured: log2 fold change

FAM122A (UniProt Q96E09)
inactive: [1] 0.097 | [2] -0.011 | [3] -0.018 | [4] 0.095 | [5] -0.031

FABP5 (UniProt Q01469)
inactive: [1] 0.047 | [2] -0.004 | [3] -0.083 | [4] 0.059 | [5] -0.018

ERO1A (UniProt Q96HE7)
inactive: [1] -0.002 | [2] 0.003 | [3] 0.001 | [4] -0.012 | [5] 0.04

EZR (UniProt P15311)
inactive: [1] 0.013 | [2] 0.011 | [3] -0.015 | [4] 0.014 | [5] 0.051

EXOSC9 (UniProt Q06265)
inactive: [1] -0.03 | [2] -0.001 | [3] 0.015 | [4] -0.019 | [5] -0.018

FAM20B (UniProt O75063)
inactive: [1] -0.047 | [2] -0.012 | [3] 0.081 | [4] 0.098 | [5] 0.017

FAH isoform 2 (UniProt P16930)
inactive: [1] -0.151 | [2] 0.024 | [3] -0.034 | [4] 0.025 | [5] -0.299

FAM83A (UniProt Q86UY5)
inactive: [1] 0.065 | [2] -0.023 | [3] 0.063 | [4] 0.11 | [5] -0.039

ERP44 (UniProt Q9BS26)
inactive: [1] 0.055 | [2] 0.012 | [3] 0.036 | [4] -0.01 | [5] -0.046

ERO1B (UniProt Q86YB8)
inactive: [1] 0 | [2] 0.108 | [3] -0.005 | [4] 0.02 | [5] 0.006

FAM241A (UniProt Q8N8J7)
inactive: [1] -0.229 | [2] 0.052 | [3] 0.148 | [4] 0.015 | [5] -0.161

ERLEC1 (UniProt Q96DZ1)
inactive: [1] 0.034 | [2] 0.005 | [3] 0.041 | [4] 0.025 | [5] -0.005

ESYT2 (UniProt H7BXI1)
inactive: [1] 0.004 | [2] 0.018 | [3] -0.001 | [4] 0.048 | [5] 0.036

EVI5 isoform 2 (UniProt O60447)
inactive: [1] -0.069 | [2] 0.05 | [3] -0.032 | [4] -0.021 | [5] 0.045

FAM107B isoform 2 (UniProt Q9H098)
inactive: [1] 0 | [2] 0.023 | [3] 0.17 | [4] -0.163 | [5] -0.022

ESRRA (UniProt P11474)
inactive: [1] 0.204 | [2] -0.018 | [3] 0.029 | [4] 0.046 | [5] 0.264

EXOSC1 (UniProt Q9Y3B2)
inactive: [1] 0.021 | [2] 0.04 | [3] -0.025 | [4] 0.013 | [5] 0.006

16 neighbouring records out of the list so far, for reference:
FABP5 (UniProt Q01469)
inactive: [1] 0.047 | [2] -0.004 | [3] -0.083 | [4] 0.059 | [5] -0.018

ERO1A (UniProt Q96HE7)
inactive: [1] -0.002 | [2] 0.003 | [3] 0.001 | [4] -0.012 | [5] 0.04

EZR (UniProt P15311)
inactive: [1] 0.013 | [2] 0.011 | [3] -0.015 | [4] 0.014 | [5] 0.051

EXOSC9 (UniProt Q06265)
inactive: [1] -0.03 | [2] -0.001 | [3] 0.015 | [4] -0.019 | [5] -0.018

FAM20B (UniProt O75063)
inactive: [1] -0.047 | [2] -0.012 | [3] 0.081 | [4] 0.098 | [5] 0.017

FAH isoform 2 (UniProt P16930)
inactive: [1] -0.151 | [2] 0.024 | [3] -0.034 | [4] 0.025 | [5] -0.299

FAM83A (UniProt Q86UY5)
inactive: [1] 0.065 | [2] -0.023 | [3] 0.063 | [4] 0.11 | [5] -0.039

ERP44 (UniProt Q9BS26)
inactive: [1] 0.055 | [2] 0.012 | [3] 0.036 | [4] -0.01 | [5] -0.046

ERO1B (UniProt Q86YB8)
inactive: [1] 0 | [2] 0.108 | [3] -0.005 | [4] 0.02 | [5] 0.006

FAM241A (UniProt Q8N8J7)
inactive: [1] -0.229 | [2] 0.052 | [3] 0.148 | [4] 0.015 | [5] -0.161

ERLEC1 (UniProt Q96DZ1)
inactive: [1] 0.034 | [2] 0.005 | [3] 0.041 | [4] 0.025 | [5] -0.005

ESYT2 (UniProt H7BXI1)
inactive: [1] 0.004 | [2] 0.018 | [3] -0.001 | [4] 0.048 | [5] 0.036

EVI5 isoform 2 (UniProt O60447)
inactive: [1] -0.069 | [2] 0.05 | [3] -0.032 | [4] -0.021 | [5] 0.045

FAM107B isoform 2 (UniProt Q9H098)
inactive: [1] 0 | [2] 0.023 | [3] 0.17 | [4] -0.163 | [5] -0.022

ESRRA (UniProt P11474)
inactive: [1] 0.204 | [2] -0.018 | [3] 0.029 | [4] 0.046 | [5] 0.264

EXOSC1 (UniProt Q9Y3B2)
inactive: [1] 0.021 | [2] 0.04 | [3] -0.025 | [4] 0.013 | [5] 0.006

The listing continues.

FAM162A (UniProt Q96A26)
inactive: [1] 0.06 | [2] 0.028 | [3] -0.041 | [4] 0.053 | [5] 0.044

FAH (UniProt P16930)
inactive: [1] 0.03 | [2] -0.012 | [3] -0.011 | [4] -0.006 | [5] -0.127

ETHE1 (UniProt O95571)
inactive: [1] 0.008 | [2] 0.003 | [3] 0.008 | [4] 0.048 | [5] -0.147

FAM120A isoform 6 (UniProt Q9NZB2)
inactive: [1] -0.04 | [2] 0.009 | [3] -0.003 | [4] -0.022 | [5] -0.007

F11R (UniProt Q9Y624)
inactive: [1] 0.022 | [2] -0.012 | [3] 0.03 | [4] -0.024 | [5] -0.055

FAHD1 (UniProt Q6P587)
inactive: [1] -0.073 | [2] 0.013 | [3] -0.084 | [4] -0.003 | [5] -0.183

ETFRF1 (UniProt Q6IPR1)
inactive: [1] 0.021 | [2] 0.058 | [3] -0.031 | [4] -0.02 | [5] 0.066

EXOC5 (UniProt O00471)
inactive: [1] -0.065 | [2] -0.002 | [3] 0.068 | [4] -0.023 | [5] 0.035

FAF1 (UniProt Q9UNN5)
inactive: [1] 0.017 | [2] -0.002 | [3] -0.01 | [4] -0.032 | [5] -0.018

FAAP100 (UniProt Q0VG06)
inactive: [1] 0.001 | [2] 0 | [3] 0.101 | [4] 0.01 | [5] -0.048

ESD (UniProt P10768)
inactive: [1] -0.004 | [2] 0.025 | [3] -0.008 | [4] 0.045 | [5] 0.013

FAIM isoform 2 (UniProt Q9NVQ4)
inactive: [1] 0.071 | [2] 0.074 | [3] 0.037 | [4] -0.017 | [5] 0.002

FAM50A (UniProt Q14320)
inactive: [1] 0.009 | [2] 0.012 | [3] 0.007 | [4] -0.002 | [5] 0.014

FAM126A (UniProt Q9BYI3)
inactive: [1] -0.031 | [2] 0.136 | [3] 0.126 | [4] -0.098 | [5] -0.059

ETFDH (UniProt Q16134)
inactive: [1] 0.027 | [2] 0.013 | [3] 0.016 | [4] -0.038 | [5] 0.045

EWSR1 isoform 5 (UniProt Q01844)
inactive: [1] 0.047 | [2] -0.024 | [3] -0.012 | [4] 0.053 | [5] 0.002

FAM207A (UniProt Q9NSI2)
inactive: [1] 0.032 | [2] 0.022 | [3] 0 | [4] 0.04 | [5] 0.032

FAM192A (UniProt Q9GZU8)
inactive: [1] 0.011 | [2] -0.024 | [3] -0.042 | [4] 0.082 | [5] -0.061

ETFB (UniProt P38117)
inactive: [1] 0 | [2] 0.012 | [3] -0.006 | [4] -0.03 | [5] -0.04

EXOC1 (UniProt Q9NV70)
inactive: [1] -0.011 | [2] 0.032 | [3] 0.013 | [4] 0.02 | [5] 0.068

FADS1, A0A0A0MR51
inactive: [1] 0.071 | [2] -0.019 | [3] -0.027 | [4] -0.035 | [5] 0.013

FAM53B (UniProt Q14153)
inactive: [1] 0.044 | [2] -0.039 | [3] 0.055 | [4] -0.088 | [5] 0.022

ERMP1 (UniProt Q7Z2K6)
inactive: [1] 0.028 | [2] 0 | [3] -0.029 | [4] -0.04 | [5] -0.055

EXT2 isoform 3 (UniProt Q93063)
inactive: [1] 0.085 | [2] -0.038 | [3] -0.044 | [4] -0.044 | [5] -0.039

FAM118A (UniProt Q9NWS6)
inactive: [1] -0.028 | [2] -0.033 | [3] -0.021 | [4] -0.108 | [5] -0.015

FAM114A2 (UniProt Q9NRY5)
inactive: [1] 0.073 | [2] -0.002 | [3] -0.027 | [4] 0.019 | [5] 0.035

FAM234A (UniProt Q9H0X4)
inactive: [1] 0.024 | [2] 0.03 | [3] -0.001 | [4] -0.104 | [5] 0.013

ETF1 (UniProt P62495)
inactive: [1] 0.006 | [2] 0.012 | [3] 0.005 | [4] -0.007 | [5] -0.008

EXOSC5 (UniProt Q9NQT4)
inactive: [1] -0.034 | [2] 0.01 | [3] 0.048 | [4] -0.008 | [5] 0.022

EWSR1 (UniProt H7BY36)
inactive: [1] -0.079 | [2] -0.06 | [3] 0.091 | [4] -0.058 | [5] 0.061

EXOSC6 (UniProt Q5RKV6)
inactive: [1] 0.005 | [2] 0.01 | [3] 0.015 | [4] -0.046 | [5] 0.005

FAM185A (UniProt Q8N0U4)
inactive: [1] -0.004 | [2] -0.025 | [3] 0.086 | [4] 0.018 | [5] -0.02

FAM102B (UniProt Q5T8I3)
inactive: [1] -0.052 | [2] 0.099 | [3] 0.009 | [5] -0.035

FAM193A, A0A1B0GVL4
inactive: [1] -0.041 | [2] -0.036 | [3] 0 | [5] -0.024

FADS3 (UniProt Q9Y5Q0)
inactive: [1] 0.021 | [2] 0.018 | [3] -0.227 | [4] -0.06 | [5] -0.115

EXOSC4 (UniProt Q9NPD3)
inactive: [1] -0.01 | [2] 0.023 | [3] 0.04 | [4] -0.032 | [5] -0.004
